For at least one compound, name, drawing or mass did not settle the structure.
Tested on: mouse aortic ring
Assay: Angiogenesis bioassay, aortic ring embedded in matrigel
Format: cell-based
Details: 7 days, B 600 nmol/l, 5alpha-THB 1000 nmol/l
Experimental: In this bioassay, the number of new vessels forming is measured over 7 days in a mouse aortic ring embedded in matrigel.

SMILES: CC#C[C@]1(O)CC[C@H]2[C@@H]3CCC4=CC(=O)CCC4=C3[C@@H](c3ccc(N(C)C)cc3)C[C@@]21C [RU486]
- number of new vessels forming (angiogenesis): no effect on its own
